According to US9975854B2, “Benzomorphan analogs and use thereof” (Purdue Pharma L.P., priority 2014, dated 2018):
Structures were worked out from names or drawings and are uncertain.

Protein sequences, listed by entry. Tags and fused reporters are not part of them.
UniProt P35372, whole entry: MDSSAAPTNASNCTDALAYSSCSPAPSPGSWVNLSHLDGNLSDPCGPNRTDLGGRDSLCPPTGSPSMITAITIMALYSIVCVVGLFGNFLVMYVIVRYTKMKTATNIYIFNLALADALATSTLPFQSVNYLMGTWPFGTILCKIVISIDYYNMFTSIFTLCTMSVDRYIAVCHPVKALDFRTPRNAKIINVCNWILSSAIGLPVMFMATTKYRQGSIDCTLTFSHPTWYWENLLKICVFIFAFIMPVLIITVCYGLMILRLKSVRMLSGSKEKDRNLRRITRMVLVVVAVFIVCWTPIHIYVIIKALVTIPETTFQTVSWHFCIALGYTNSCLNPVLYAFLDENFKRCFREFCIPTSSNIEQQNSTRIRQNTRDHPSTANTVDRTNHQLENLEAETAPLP

Molecular target: μ-opioid receptor (Homo sapiens (Human), UniProt P35372)
Test: μ-opioid receptor [35S]GTPγS functional assay, HEK-293 or CHO cells
Type: biochemical
Experimental: [^35S]GTPγS functional assays were conducted using freshly thawed μ-receptor membranes prepared in-house from a cell line expressing recombinant opioid receptor in a HEK-293, CHO or U-2 OS cell background, or purchased from a commercial source (Perkin Elmer, Shelton, Conn.; or DiscovRx, Fremont, Calif.). Assay reactions were prepared by sequentially adding the following reagents to binding buffer (100 mM NaCl, 10 mM MgCl2, 20 mM HEPES, pH 7.4) on ice (final concentrations indicated): membrane protein (0.026 mg/mL), saponin ([…]), GDP ([…]) and [^35S]GTPγS (0.20 nM; Perkin Elmer, Shelton, Conn.). The prepared membrane solution (190 μl/well) was transferred to 96-shallow well polypropylene plates containing 10 μl of 20× concentrated stock solutions of the agonist [D-Ala^2, N-methyl-Phe^4 Gly-ol^5]-enkephalin (DAMGO) prepared in dimethyl sulfoxide (DMSO). Plates were incubated for 30 min at about 25° C. with shaking. […] BetaScint scintillation cocktail (Perkin Elmer, Shelton, Conn.) was added (50 μl/well) and plates were counted using a Packard Top-Count for 1 min/well. Data were analyzed using the sigmoidal dose-response curve fitting functions in GraphPad PRISM v. […]
In TABLE 4, activity response of certain Compounds of the Invention to the μ- and κ-opioid receptors was determined as described above for functional assays using HEK-293 or CHO cells.

## CC(C)S(=O)(=O)N1CCC(CN[C@H]2[C@H]3Cc4ccc(O)cc4[C@]2(C)CCN3C)CC1
read-out: GTPγS μ EC50
  EC50: 854 nM
Relative to DAMGO
  GTPγS μ Emax: 34.9 ± 1.2%
